Assay results: article PMC11402785, “Structural basis for activity switching in polymerases determining the fate of let-7 pre-miRNAs” (Nature Structural & Molecular Biology, 2024)
No constants are given. Whether binding was seen depends on the method and setting. Some results given as binding are weak or reduced against the parent protein; the word gives no strength.

Columns and labels:
[1] = molecular target: T1, human terminal uridylyltransferase 4 (TUT4), truncated (residues 254-1315) (human) (UniProt Q5TAX3); assay: SEC; TUT4/pre-let-7g/LIN28A assembled with the components added in different orders (pre-let-7 + LIN28A first, or TUT4 + pre-let-7 first), 4 h on ice each step, then SEC; checked by 2D class averages; both purified
T1 sequence: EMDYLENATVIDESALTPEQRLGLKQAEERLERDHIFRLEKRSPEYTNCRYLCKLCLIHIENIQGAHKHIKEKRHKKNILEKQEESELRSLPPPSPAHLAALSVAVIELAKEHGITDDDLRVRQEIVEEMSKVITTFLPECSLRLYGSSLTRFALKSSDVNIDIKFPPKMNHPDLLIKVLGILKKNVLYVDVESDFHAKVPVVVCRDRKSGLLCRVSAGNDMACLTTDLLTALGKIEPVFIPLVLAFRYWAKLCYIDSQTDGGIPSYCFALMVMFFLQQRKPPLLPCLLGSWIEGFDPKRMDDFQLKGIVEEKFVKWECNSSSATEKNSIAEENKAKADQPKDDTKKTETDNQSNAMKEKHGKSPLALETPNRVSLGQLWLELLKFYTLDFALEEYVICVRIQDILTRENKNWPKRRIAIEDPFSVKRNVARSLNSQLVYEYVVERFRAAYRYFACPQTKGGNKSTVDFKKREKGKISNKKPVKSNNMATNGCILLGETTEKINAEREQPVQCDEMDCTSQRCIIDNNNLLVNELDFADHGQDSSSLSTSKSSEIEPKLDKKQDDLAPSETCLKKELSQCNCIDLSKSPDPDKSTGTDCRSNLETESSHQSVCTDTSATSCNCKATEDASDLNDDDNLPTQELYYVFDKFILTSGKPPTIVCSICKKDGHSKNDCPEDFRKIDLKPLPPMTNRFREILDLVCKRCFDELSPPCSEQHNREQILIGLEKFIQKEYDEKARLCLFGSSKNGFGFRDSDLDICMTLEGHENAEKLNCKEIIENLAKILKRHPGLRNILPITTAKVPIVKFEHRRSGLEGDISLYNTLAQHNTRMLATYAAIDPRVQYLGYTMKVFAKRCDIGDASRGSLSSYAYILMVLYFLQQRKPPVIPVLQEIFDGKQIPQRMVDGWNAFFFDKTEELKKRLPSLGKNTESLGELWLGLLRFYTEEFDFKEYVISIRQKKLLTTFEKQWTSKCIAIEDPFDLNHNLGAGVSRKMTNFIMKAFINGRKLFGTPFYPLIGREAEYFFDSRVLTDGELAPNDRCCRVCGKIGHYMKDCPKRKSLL

[2] = molecular target: T1, human terminal uridylyltransferase 4 (TUT4), truncated (residues 254-1315) (human); assay: cryo-EM structure; ternary complexes of TUT7 or TUT4 with pre-let-7g RNA and LIN28A mixed at a molar ratio of 1:1.5:2, overnight on ice with 0.5 mM UTPalphaS, 2 mM DTT, 2 mM CaCl2, then SEC in 20 mM HEPES pH 7.8, 100 mM NaCl; both purified
[3] = molecular target: T1, human terminal uridylyltransferase 4 (TUT4), truncated (residues 254-1315) (human); assay: native gel or EMSA; 3' CY labelled pre-let-7g with TUT4 (wild type or mutants) and LIN28A; 20 mM HEPES pH 7.8, 100 mM NaCl, 2 mM CaCl2, 50 uM ZnCl2, 5% glycerol, 5 mM DTT, 0.5 mM UTP, on ice 30 min; 3-12% native gel; the labelled RNA is imaged; both purified

Measured: binding

B1: human LIN28A (natural protein)
chain: MGSVSNQQFAGGCAKAAEEAPEEAPEDAARAADEPQLLHGAGICKWFNVRMGFGFLSMTARAGVALDPPVDVFVHQSKLHMEGFRSLKEGEAVEFTFKKSAKGLESIRVTGPGGVFCIGSERRPKGKSMQKRRSKGDRCYNCGGLDHHAKECKLPPQPKKCHFCQSISHMVASCPLKAQQGPSAQGKPTYFREEEEEIHSPTLLPEAQN
notes: LIN28A, human, synthesised gene; Expressed as an N-terminal His6-GST fusion; removal of the tag is not described; The phrase 'full-length wild-type human TUT7 and human LIN28A' may or may not mean that LIN28A was full length; Only the ZK domain is resolved in the maps
binds: all assays above
